From publication PMC7261183 come the findings set out here.

The target of assay [1] is BrxB with C-terminal Strep-tag II (Escherichia coli HS). Nature of the assay: pull-down; Strep-tagged protein and candidate partner produced in E. coli BW25113 from compatible plasmids (BREX- or BREX+ cells); clarified lysate on a StrepTrap HP column, washed with buffer A (150 mM NaCl, 1 mM EDTA, 100 mM Tris-HCl pH 8.0), eluted with desthiobiotin; SDS-PAGE, bands identified by MALDI-TOF mass spectrometry.

Assay [2] addresses BrxL with C-terminal Strep-tag II (Escherichia coli HS). Described as above.
In assay [3] the target is BrxZ with C-terminal Strep-tag II (Escherichia coli HS). The description is as above.
The target is the same in assay [4]. Nature of the assay: pull-down; BW25113 cells with a BREX cluster carrying Strep-tagged BrxX or BrxZ, infected with wild-type T7 at MOI = 1 before harvest; clarified lysate on a StrepTrap HP column, buffer A (150 mM NaCl, 1 mM EDTA, 100 mM Tris-HCl pH 8.0), eluted with desthiobiotin; SDS-PAGE, bands identified by MALDI-TOF mass spectrometry.

These are yes or no findings as the source states them, for the method shown. In cells and extracts the contact can be indirect. For some of these results: Tags and fused reporters may be left off the sequences shown.

B1: wild-type Ocr (untagged, produced from plasmid) (protein, UniProt P03775 1-117)
chain: MAMSNMTYNNVFDHAYEMLKENIRYDDIRDTDDLHDAIHMAADNAVPHYYADIFSVMASEGIDLEFEDSGLMPDTKDVIRILQARIYEQLTIDLWEDAEDLLNEYLEEVEEYEEDEE
For B1, the binding entry in assay [1], in assay [2] and in assay [3] was “no binding” throughout.

B2: Ocr synthesized in the course of infection with wild-type T7 (protein, UniProt P03775 1-117)
chain: B1 chain
Turning to B2, in assay [4], the binding entry was “no binding”.
